Source: patent US10556936B2, “Immunogenic proteins and fragments thereof from allergenic mites” (ALK-ABELLÓ A/S, priority 2016, dated 2020)

Assay: Relative abundance in house dust mite extracts (emPAI, MS/MS)
Conditions: sum of all hits = 100%

B1: A003: house dust mite protein; SEQ ID NO: 2 (Der f), 3 (Der p), 305 (Blo t) (protein)
chain: MAIDGKYQMESSEHFEEFVKEMGLDVDMTNVDLSKTSTMEICKDGDVYHIKSETAGIAHEIKFKVGEEFEDDMNGHKFKNVVTMECDNKMVQKKTSADGGKVVNVVREFTDAGCTVKSTYNTVTWTRVYKRM
With B1 the “relative abundance, Der f bodies, Mild extraction (10 min)” value (from here on “relative abundance, Der f bodies”) was 19.0 molar %, the “relative abundance, Der f fecals Mild extraction (10 min)” value was 11.9 molar % and the “relative abundance, Der f full extract” value was 13.5 molar %. For the same molecule, the “relative abundance, Der p bodies Mild extraction (10 min)” value was 3.9 molar %, the “relative abundance, Der p fecals Mild extraction (10 min)” value was <0.0 molar % and the “relative abundance, Der p full extract” value was 17.8 molar %.

B2: A007: house dust mite protein; SEQ ID NO: 30 (Der f), 31 (Der p), 306 (Blo t) (protein)
chain: MAKFNYLPVDVQEELRNTANAIVSVGKGILAADESTGTIGKRFADINVENVEQNRQAYRQLLFYSEGIEQYISGVILFDETVYQKDDKGVPFPELLKKKGIIPGIKVDTGVVTLQGTNGESTTQGLDNLTKRCQEYYNQGCRFAKWRCVLKIGQDEPSSLAIVENANVLARYASCCQQARIVPIVEPEILPDGDHNLERCQKVTETVLAAVYKALNDHHVYLEGTLLKPNMVTPGQSCPQKASPQEVAQATVTALQRTVPAAVPGIVFLSGGQSEEEASVNLNAINQYQGKKPWALSFSYGRALQASALRAWQGKPENIGAGQKELLQRAKANVLAHKGQYVAGSIPSLASAKSNFVAQHKY
In the case of B2, the “relative abundance, Der f bodies” value is reported as 4.5 molar %, the “relative abundance, Der f fecals Mild extraction (10 min)” value is reported as 2.4 molar % and the “relative abundance, Der f full extract” value is reported as 3.5 molar %. The “relative abundance, Der p bodies Mild extraction (10 min)” value was 1.3 molar %, the “relative abundance, Der p fecals Mild extraction (10 min)” value was 0.3 molar % and the “relative abundance, Der p full extract” value was 2.1 molar %.

B3: A009: house dust mite protein; SEQ ID NO: 43 (Der f), 44 (Der p), 307 (Blo t) (protein)
chain: VVIKVENLPEQCDYTQCPKWSKDDINVHLVAHTHDDVGWLKTVEQYYYGLKNDIQRAGVQYILDTMIEELIRNKDRRFIYVEIAFFWKWWQEQNEEQRMIVKELVRTGQLEFINGGWSMPDEAATHYNSLIDQSTWGLRQLNDTFGRCGHPKVTWQIDPFGHSKEMANLYAQMGYDALFFARQDYQDRENRMSNRTLEHVWQGSDDLGEIGDIFTGMMFSGYGPIEFNWDITNGPEDAVVDNPESEEYNVPDKIRRFVEKAKYFGQFYATNHFMFPMGTDFQYTDAHTWFKNLDKLINAVNKAGKGVRAFYSTPSCYAHALYEQNRTWTTKTDDFFPYASDEHAYWTGYFTSRPAIKRMERIGNNLLQACKQLDVLADNNGRFEMNLTKMREAMGVMQHHDAVTGTEKQHVAFNYAKMLDSAMLQCRHIINESYKKLLPKSSTSEHEFCPYLNISSCPTTEMGESRIIYLYNPLGHRLINHTVRLPIKNGYYYRIQDQNNQSVPSVLVPIPEFVQKIPGRKSVATKELVFRVPVIEPLGITTMYMYVDKNEQPNSAIEIKGENPDDNDDKSKWLVLTKNLIVEFYSNGTISRISIDKLHQSISISNEFRLYHGAGGTGRHSGAYIFRPNEQKTFPVTNKIKSTFFIDRKYHIVQEVHQQFDSSFVGQIIRMDKYNDNVEFDFVVGPIPVNDQIGKEIIASYKTDLENDETFYTDANGRQMLRRRWNYRPSWKYNVQEPISGNYYPVNSRIAIRDEKQSLQMTIMTDRSQGGSLSPEQINGSIDIMIHRRLLHDDYFGVGEALNEPGVDGHGLVIRGKHLLLLNSIKQSASEHRPLAQQMFMEPIISFTSIESNKQAEKQSNQYIGLNNDLPSNVHLLTLEQWHSKRYLLRLEHFYQSNEDTELSKPVKLSLRHLFKSFEIIAVEELTLGANQPISSLKNRLHYRYNRPLEQRQQQQSSLLLDDPKIEGENFDIHLSPMQIRTFLIDIKRN
For B3, the “relative abundance, Der f bodies” value was 2.3 molar %, the “relative abundance, Der f fecals Mild extraction (10 min)” value was 0.6 molar % and the “relative abundance, Der f full extract” value was 0.4 molar %. The “relative abundance, Der p bodies Mild extraction (10 min)” value was 1.0 molar %, the “relative abundance, Der p fecals Mild extraction (10 min)” value was 0.3 molar % and the “relative abundance, Der p full extract” value was 0.6 molar %.

B4: A001: house dust mite protein; SEQ ID NO: 13 (Der f), 14 (Der p); recombinant test protein (protein)
chain: KKSPDCDIERPIRECLKDGLLRYSSGQKINQFPDTIQDLNRACEELKKSETCARTFIDTCTESSYEKRSLDSLLDGIQRVMKRLCRSQTKKEKLLENVGCANSVVQDTKQCLKNYRMLVFAANKLDNKNKIMRILCCKSRKVAPCIGEAMKAKGTAVCSAKNIDYFKDVHQNIKQEMTAVVCSDFERDQCENVDVPNISESEYKDQNIFNPLRDLYKKVILG
In the case of B4, the “relative abundance, Der f bodies” value is reported as 8.0 molar %, the “relative abundance, Der f fecals Mild extraction (10 min)” value is reported as 11.6 molar % and the “relative abundance, Der f full extract” value is reported as 9.2 molar %. For the same molecule, the “relative abundance, Der p bodies Mild extraction (10 min)” value was 5.0 molar %, the “relative abundance, Der p fecals Mild extraction (10 min)” value was 0.5 molar % and the “relative abundance, Der p full extract” value was 4.5 molar %.
